Data on one molecule can be found in publication PMC4818104.

Amino acid sequences for entries named in this document (tags omitted). A change or cut given only in a name is not applied to a line headed by its entry. Residues count along the entry.
GST fusion to WT ERα 176–253 peptide (P03372, residues 176-253): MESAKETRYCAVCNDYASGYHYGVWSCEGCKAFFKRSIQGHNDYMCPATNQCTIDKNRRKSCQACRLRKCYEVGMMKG

Results are given in words; binding and its absence hold for the method and conditions named. In cells and extracts the contact can be indirect. Some binding calls cover weakened binding; strength is not graded here. Tags and fused reporters may be left off the sequences shown.

Test [1] has as its target GST fusion to KRR->AAA mutant ERα 176–253 peptide (human) (UniProt P03372). Nature of the test: pull-down; purified GST fusion proteins mixed with cell lysates, rocked at 4°C overnight, washed 3 times with PBS, SDS-PAGE and immunoblotting; equal amount of each fusion protein; only the target purified.
Test [2] deals with GST fusion to WT ERα 176–253 peptide (human) (UniProt P03372). Described as above.

B1: His-tagged striatin AAs 1–203 (domain or fragment, UniProt O43815 1-203)
chain: MDEQAGPGVFFSNNHPGAGGAKGLGPLAEAAAAGDGAAAAGAARAQYSLPGILHFLQHEWARFEVERAQWEVERAELQAQIAFLQGERKGQENLKKDLVRRIKMLEYALKQERAKYHKLKYGTELNQGDMKPPSYDSDEGNETEVQPQQNSQLMWKQGRQLLRQYLQEVGYTDTILDVKSKRVRALLGFSSDVTDREDDKNQD
In the case of B1, the values for the binding entry in test [1] and in test [2] were “no binding” and “binds”, respectively.
